Laboratory results: article PMC12431657, “Discovery and mechanistic insights of dibenzoylmethane as a broad spectrum inhibitor of coronavirus” (PLOS Pathogens, 2025)
Counter-ions that a name gives are not always drawn. Like-named read-outs stand apart in the source and are kept apart here. In all, about 3,300 compounds went through this assay and about 95 (3%) showed an effect of 50% or more. The list shows a part of the results. Peptide text beside a SMILES is read from it.

System: HCoV-229E
Design: species or system Huh-7; HTS, protection from HCoV-229E induced cell death, luminescent cell viability (CellCounting-Lite 2.0), inhibition rate
Settings: 24 h post infection, 1 h compound pre-incubation, 10 µM, inhibitor

| Structure (SMILES) | 229E Inhibition rate [%] | 229E Inhibition rate (229E Inhibition rate, 24 h) [%] |
| --- | --- | --- |
| CC(=O)O[C@@]12CO[C@@H]1C[C@H](O)[C@@]1(C)C(=O)[C@H](O)C3=C(C)[C@@H](O)C[C@@](O)([C@@H](OC(=O)c4ccccc4)[C@H]21)C3(C)C [10-Deacetylbaccatin III] | 13.7 | – |
| COc1cc(CC(=O)O)ccc1O [Homovanillic acid] | 16.1 | – |
| COc1cc(/C=C/C(=O)O[C@H]2[C@H](O)[C@@H](CO)O[C@@]2(CO)O[C@H]2O[C@H](CO)[C@@H](O)[C@H](O)[C@H]2O)cc(OC)c1OC [Glomeratose A] | 12.1 | – |
| COc1c(OC)c2occc2c2oc(=O)ccc12 [Pimpinellin] | 18.3 | – |
| CC(C)=CCC/C(C)=C/COc1ccc2ccc(=O)oc2c1 [Auraptene] | 10.5 | – |
| O=C1c2ccccc2C(=O)c2cc(CO)ccc21 [2-(Hydroxymethyl)anthraquinone] | 22.9 | – |
| C[C@]1(C(=O)O)CCC[C@]2(C)c3cc(O)ccc3CC[C@@H]12 [Podocarpic acid] | 23.2 | – |
| CNCC(O)c1ccc(O)cc1 (stereo not shown) [Synephrine] | – | 0 |
| CO[C@H]1C(=O)[C@]2(C)[C@@H](OC)C[C@H]3OC[C@@]3(OC(C)=O)[C@H]2[C@H](OC(=O)c2ccccc2)[C@]2(O)C[C@H](OC(=O)[C@H](O)[C@@H](NC(=O)OC(C)(C)C)c3ccccc3)C(C)=C1C2(C)C [Cabazitaxel] | 12.8 | – |
| C[C@@H]1CC[C@@]2(OC1)O[C@H]1C[C@H]3[C@@H]4CC=C5C[C@@H](O[C@@H]6O[C@H](CO)[C@@H](O)[C@H](O[C@@H]7O[C@H](CO)[C@@H](O)[C@H](O)[C@H]7O)[C@H]6O[C@@H]6O[C@@H](C)[C@H](O)[C@@H](O)[C@H]6O)CC[C@]5(C)[C@H]4CC[C@]3(C)[C@H]1[C@@H]2C [Gracillin] | 2.8 | – |
| CCCCCc1ccco1 [2-Pentylfuran] | 25.3 | – |
| COc1cc2ccc(=O)oc2c(O)c1OC [Fraxidin] | 12.9 | – |
| CC(=O)NCCCC[C@H](N)C(=O)O [Nepsilon-Acetyl-L-lysine] | 0 | – |
| COc1cc2c(cc1OC)[C@H]1[C@@H](C)c3ccc(OC)c(OC)c3CN1CC2 [Corydaline] | 6.8 | – |
| CC1(C)C=Cc2c(ccc(C(=O)/C=C/c3ccc(O)cc3)c2O)O1 [4-Hydroxylonchocarpin] | – | 14.6 |
| COC(=O)[C@@]12OC[C@]34[C@H]([C@@H](O)[C@@H]1O)[C@@]1(C)CC(=O)C(O)=C(C)[C@@H]1C[C@H]3OC(=O)[C@H](OC(=O)CC(C)C)[C@@H]24 [Bruceine A] | 3.6 | – |
| CCCCCCCC/C=C\CCCCCCCCCCCC(=O)O [Erucic acid] | 36.2 | – |
| O=C(O)CCCCCCCCC(=O)O [Decanedioic acid] | 17.4 | – |
| O=c1c(O)c(-c2ccccc2)oc2cc(O)cc(O)c12 [Galangin] | 8 | – |
| CC1(C)C=Cc2c(-c3c4c(c5ccccc5c3O)OC(C)(C)C=C4)c(O)c3ccccc3c2O1 [Tectol] | 44.9 | – |
| OC[C@H]1O[C@@](CO)(OC[C@@]2(OC[C@@]3(OC[C@@]4(O[C@H]5O[C@H](CO)[C@@H](O)[C@H](O)[C@H]5O)O[C@H](CO)[C@@H](O)[C@@H]4O)O[C@H](CO)[C@@H](O)[C@@H]3O)O[C@H](CO)[C@@H](O)[C@@H]2O)[C@@H](O)[C@@H]1O [1F-Fructofuranosylnystose] | 16.7 | – |

Gathered by group, those above with a furan ring, fused or not.

| Structure (SMILES) | 229E Inhibition rate [%] | 229E Inhibition rate (229E Inhibition rate, 24 h) [%] |
| --- | --- | --- |
| COc1c(OC)c2occc2c2oc(=O)ccc12 [Pimpinellin] | 18.3 | – |
| CCCCCc1ccco1 [2-Pentylfuran] | 25.3 | – |

(cont.)

| Structure (SMILES) | 229E Inhibition rate [%] | 229E Inhibition rate (229E Inhibition rate, 24 h) [%] |
| --- | --- | --- |
| CCCCC[C@H](CC(=O)NO)C(=O)N[C@H](C(=O)N1CCC[C@H]1CO)C(C)C [Actinonin] | 7.2 | – |
| NCC(N)C(=O)O (stereo not shown) [2,3-Diaminopropanoic acid hydrochloride] | 6.7 | – |
| O=C(O)c1ccnc2ccccc12 [NSC 13138] | 11.6 | – |
| C[C@H](CCC(=O)O)[C@H]1CC[C@H]2[C@@H]3CC[C@@H]4C[C@H](O)CC[C@]4(C)[C@H]3C[C@@H](O)[C@]12C [3α,12β-Dihydroxycholanoic acid] | 16.7 | – |
| CCCCCCCCCCCCCCCCO [1-Hexadecanol] | 14 | – |
| O=C(O)CC(O)(CC(=O)OCc1ccc(O[C@@H]2O[C@H](CO)[C@@H](O)[C@H](O)[C@H]2O)cc1)C(=O)OCc1ccc(O[C@@H]2O[C@H](CO)[C@@H](O)[C@H](O)[C@H]2O)cc1 (stereo partly shown) [Parishin B] | 14.4 | – |
| COc1cc(/C=C/CO)cc(OC)c1O[C@@H]1O[C@H](CO)[C@@H](O)[C@H](O)[C@H]1O [Syringin] | 12.5 | – |
| C/C=C(/C)C(=O)O[C@H]1[C@H](O)[C@]2(COC(C)=O)[C@H](O)C[C@]3(C)C(=CC[C@@H]4[C@@]5(C)CC[C@H](O[C@@H]6O[C@H](C(=O)O)[C@@H](O[C@@H]7O[C@H](CO)[C@@H](O)[C@H](O)[C@H]7O)[C@H](O)[C@H]6O[C@@H]6O[C@H](CO)[C@@H](O)[C@H](O)[C@H]6O)[C@](C)(CO)[C@@H]5CC[C@]43C)[C@@H]2CC1(C)C [Isoescin IB] | 8.9 | – |
| COc1cc(O)c2c(=O)c(-c3ccc(O)cc3)coc2c1 [Prunetin] | 6.7 | – |
| COc1cc(O)c2c(c1)O[C@H](c1ccc(O)cc1)CC2=O [Sakuranetin] | 0 | – |
| CC1(C)O[C@H]2CC(=O)OC[C@]23[C@H]2CC[C@@]4(C)[C@H](c5ccoc5)OC(=O)[C@H]5O[C@]54[C@]2(C)[C@@H](O)C(=O)[C@@H]13 [Rutaevin] | 0 | – |
| N[C@@H](Cc1ccc(O)c(Cl)c1)C(=O)O [3-Chloro-L-tyrosine] | 12.3 | – |
| O=C(/C=C/c1ccccc1)OCc1ccccc1 [Benzyl cinnamate] | 40.9 | – |
| Nc1ccn([C@@H]2O[C@H](CO)[C@@H](O)[C@H]2O)c(=O)n1 [Cytidine] | 9.8 | – |
| CC(C)CCC[C@@H](C)[C@H]1CC[C@H]2[C@@H]3CC=C4C[C@@H](O)CC[C@]4(C)[C@H]3CC[C@]12C [Cholesterol] | 13.1 | – |
| N[C@H](C=O)[C@@H](O)[C@H](O)[C@H](O)CO [(2S,3R,4S,5R)-2-Amino-3,4,5,6-tetrahydroxyhexanal hydrochloride] | 15.5 | – |
| CCCCCCCC/C=C\CCCCCCCC(=O)OC [Methyl oleate] | 24.6 | – |
| CC1=CC[C@H]2C[C@@H]1C2(C)C [(-)-α-Pinene] | 20 | – |
| COc1ccc(-c2oc3c4c(cc(O)c3c(=O)c2O)OC(C)(C)CC4)cc1 [β-Anhydroicaritin] | 14.4 | – |
| O=C(O)CCCCCCCCCCC(=O)O [Dodecanedioic acid] | 13 | – |
| CC(C)(CC(=O)O)C(=O)O [2,2-Dimethylsuccinic acid] | 13.8 | – |

| Structure (SMILES) | 229E Inhibition rate [%] | 229E Inhibition rate (229E Inhibition rate, 24 h) [%] |
| --- | --- | --- |
| CCCCC(O)C(=O)O (stereo not shown) [2-Hydroxyhexanoic acid] | 15.2 | – |
| CC(=O)Nc1ccc(S(=O)(=O)O)c2cc(S(=O)(=O)O)c(N=Nc3ccccc3)c(O)c12 [Lignin] | 5.5 | – |
| Cc1cn([C@H]2C[C@H](O)[C@@H](CO)O2)c(=O)[nH]c1=O [Thymidine] | 10.4 | – |
| CC(C)=C1CC[C@@H](C)CC1=O [Pulegone] | 22.5 | – |
| Oc1ccc(O)c(O)c1 [1,2,4-Trihydroxybenzene] | 18.5 | – |
| COc1cc2c(c(O)c1OC)-c1c(cc(OC)c(OC)c1OC)C[C@@H](C)[C@@H](C)C2 [Schisanhenol] | 11.7 | – |
| C[C@H]1CC[C@]2(NC1)O[C@H]1C[C@H]3[C@@H]4CC[C@H]5C[C@@H](O)CC[C@]5(C)[C@H]4CC[C@]3(C)[C@H]1[C@@H]2C [Tomatidine] | – | 55.9 |
| O=C[C@H](O)[C@@H](O)[C@H](O[C@H]1O[C@H](CO)[C@@H](O[C@H]2O[C@H](CO)[C@@H](O[C@H]3O[C@H](CO)[C@@H](O[C@H]4O[C@H](CO)[C@@H](O)[C@H](O)[C@H]4O)[C@H](O)[C@H]3O)[C@H](O)[C@H]2O)[C@H](O)[C@H]1O)[C@H](O)CO [Maltopentaose] | 11.2 | – |
| Oc1cc(O)c2c(c1)OC(c1ccc(O)c(O)c1)C(O)C2O (stereo not shown) [Leucocyanidin] | 0 | – |
| NCCCCC(N)C(=O)O (racemic) [DL-Lysine] | 9.5 | – |
| O=C(O)c1cc(O)cc(O)c1 [3,5-Dihydroxybenzoic acid] | 32.2 | – |
| O=c1cc(-c2ccccc2)oc2ccc(O)cc12 [6-Hydroxyflavone] | 19.6 | – |
| COc1ccc(-c2oc3c(CC=C(C)C)c(O)cc(O)c3c(=O)c2O)cc1 [Icaritin] | 8.6 | – |
| O=c1c(O[C@@H]2O[C@H](CO)[C@@H](O)[C@H](O)[C@H]2O[C@@H]2O[C@H](CO)[C@@H](O)[C@H](O)[C@H]2O)c(-c2ccc(O)c(O)c2)oc2cc(O)cc(O)c12 [Baimaside] | 15.3 | – |
| C[C@@H]1CC[C@]2(C(=O)O[C@@H]3O[C@H](CO)[C@@H](O)[C@H](O)[C@H]3O)CC[C@]3(C)C(=CC[C@@H]4[C@@]5(C)C[C@@H](O)[C@H](O)C(C)(C)[C@@H]5CC[C@]43C)[C@@H]2[C@]1(C)O [Rosamultin] | 22.7 | – |
| COc1c(O)c(=O)n2c3ccccc3c3ccnc1c32 [Nigakinone] | 12.5 | – |
| CC(C)C[C@H](NC(=O)[C@H](C)N)C(=O)O [L-Alanyl-L-leucine] (H-Ala-Leu-OH) | 12.7 | – |
| COC(=O)/C=C/c1ccc(O)c(O)c1 [Methyl caffeate] | 12.6 | – |
| Oc1cc(O)cc(/C=C/c2c(O)cccc2O)c1 [Gnetol] | 31.7 | – |
